Common to all, as to assay: FRET or BRET; htrFRET (Tag-Lite) on intact HEK293T cells transfected with varying amounts of plasmid; SNAP-Lumi4-Tb 10 nM and SNAP-Red 100 nM, 1 h at 37 °C; signal at 665 nm (energy transfer) plotted against signal at 620 nm (cell surface expression), slope of the linear regression
(In general: Bioluminescence resonance energy transfer reports proximity on the nanometre scale.)

Chains of the proteins cited; added tags and fusions are not shown. Lines headed by an entry give the natural chain unless they say otherwise; changes in a name come on top. A line that says so, or that is headed by a name, gives the form on record, which may keep a tag or linker.
UniProt P35462: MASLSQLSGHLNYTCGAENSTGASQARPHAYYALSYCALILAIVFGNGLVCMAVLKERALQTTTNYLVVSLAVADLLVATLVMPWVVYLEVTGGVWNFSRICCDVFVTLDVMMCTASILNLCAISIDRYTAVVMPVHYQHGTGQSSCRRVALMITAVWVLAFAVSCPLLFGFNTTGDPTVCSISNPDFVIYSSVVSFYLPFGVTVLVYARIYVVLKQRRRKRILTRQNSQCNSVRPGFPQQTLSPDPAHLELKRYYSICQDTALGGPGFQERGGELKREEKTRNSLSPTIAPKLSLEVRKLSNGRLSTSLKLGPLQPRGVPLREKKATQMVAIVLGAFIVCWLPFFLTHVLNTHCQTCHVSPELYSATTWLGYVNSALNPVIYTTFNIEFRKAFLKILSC
Arg-210,Tyr-212,Val-213,Lys-216 VSV-SNAP-hD3 (P35462, form named): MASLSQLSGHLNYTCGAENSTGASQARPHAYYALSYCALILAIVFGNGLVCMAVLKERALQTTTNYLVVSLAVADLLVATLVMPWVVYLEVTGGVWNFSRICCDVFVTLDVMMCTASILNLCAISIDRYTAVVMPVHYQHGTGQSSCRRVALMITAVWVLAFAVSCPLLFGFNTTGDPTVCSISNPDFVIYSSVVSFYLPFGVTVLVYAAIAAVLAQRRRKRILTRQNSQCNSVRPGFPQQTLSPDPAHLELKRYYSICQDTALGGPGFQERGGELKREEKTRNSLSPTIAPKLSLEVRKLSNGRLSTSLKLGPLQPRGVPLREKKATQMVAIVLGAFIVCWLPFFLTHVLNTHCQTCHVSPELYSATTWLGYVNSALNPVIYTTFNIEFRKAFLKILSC
Asp-187,Ile-190,Val-194,Leu-199 VSV-SNAP-hD3 (P35462, form named): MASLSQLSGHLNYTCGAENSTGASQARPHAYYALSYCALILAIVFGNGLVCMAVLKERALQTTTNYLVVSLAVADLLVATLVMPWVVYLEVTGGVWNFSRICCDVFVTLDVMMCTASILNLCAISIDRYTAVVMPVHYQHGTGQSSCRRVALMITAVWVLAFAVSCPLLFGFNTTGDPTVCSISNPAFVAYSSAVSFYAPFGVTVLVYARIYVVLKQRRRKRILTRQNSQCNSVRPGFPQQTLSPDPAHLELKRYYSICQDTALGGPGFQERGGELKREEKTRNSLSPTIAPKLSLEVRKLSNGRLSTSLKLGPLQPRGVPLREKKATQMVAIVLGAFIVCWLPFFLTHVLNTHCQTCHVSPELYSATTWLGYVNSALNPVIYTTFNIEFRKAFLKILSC
Tyr-31,Tyr-32,Leu-34,Ser-35 VSV-SNAP-hD3 (P35462, form named): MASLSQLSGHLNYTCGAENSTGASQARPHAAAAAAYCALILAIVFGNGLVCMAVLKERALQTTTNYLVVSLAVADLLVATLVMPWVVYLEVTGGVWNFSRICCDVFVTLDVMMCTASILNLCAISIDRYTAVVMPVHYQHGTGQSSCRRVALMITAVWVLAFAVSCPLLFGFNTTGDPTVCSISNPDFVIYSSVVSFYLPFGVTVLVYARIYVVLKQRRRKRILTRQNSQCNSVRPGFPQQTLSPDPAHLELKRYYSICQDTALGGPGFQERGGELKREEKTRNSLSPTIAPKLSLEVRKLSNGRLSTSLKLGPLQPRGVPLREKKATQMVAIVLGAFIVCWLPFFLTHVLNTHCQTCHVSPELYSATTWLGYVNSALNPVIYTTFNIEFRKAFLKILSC

For experiment [1], the target named is Arg-210,Tyr-212,Val-213,Lys-216 VSV-SNAP-hD3 (human) (UniProt P35462).
The target in experiment [2] is Asp-187,Ile-190,Val-194,Leu-199 VSV-SNAP-hD3 (human) (UniProt P35462).
Experiment [3] addresses Tyr-31,Tyr-32,Leu-34,Ser-35 VSV-SNAP-hD3 (human) (UniProt P35462).

No constants are given. Whether binding was seen depends on the method and setting. In cells and extracts the contact can be indirect. Some results given as binding are weak or reduced against the parent protein; the word gives no strength.

As for “Arg-210,Tyr-212,Val-213,Lys-216 VSV-SNAP-hD3 (from UniProt P35462 1-400) (receptor)”, the binding entry in experiment [1] is “binds”.
Take “Asp-187,Ile-190,Val-194,Leu-199 VSV-SNAP-hD3 (from UniProt P35462 1-400) (receptor)”: the binding entry in experiment [2] is “binds”.
“Tyr-31,Tyr-32,Leu-34,Ser-35 VSV-SNAP-hD3 (from UniProt P35462 1-400) (receptor)”: the binding result in experiment [3] is reported as “binds”.

The values above are taken from paper PMC4463457.
